# In PubChem BioAssay AID1347426 (Functional Genomics Laboratory (NCATS/FGL), 2020):
# Out of some 31,000 sequences screened, about 1,400 (4.5%) were called active.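 How the source made its calls: active means median seed-adjusted z-score above 1 or below -1; inactive means the rest.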 Some of the results follow.
# Assay: Novel Modifiers of Survival Motor Neuron (SMN) Protein: Gene Identification via Genome-wide siRNA Screen;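 further: luminescence tracks full-length SMN protein made from the SMN2 reporter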
# Settings: HEK293T SMN2-luciferase reporter, siRNA knockdown, 72 h; actives lie on both sides
# How it was run: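 Genome-wide siRNA screen (10418 genes, 3 siRNAs each, 1 pmol per well) by reverse transfection in HEK293T cells stably carrying an SMN2-luciferase reporter; luminescence after 72 hours, normalized to negative-control siRNA, log10-transformed, MAD-scored.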
row,Sequence,median seed-adjusted z-score
1,AGAUGAUCAGCAGAAUUGATT against CSNK1A1L,inactive: -0.5
2,GCGUAUAAUCUAACUGGUUTT against ATRNL1,inactive: -0.142
3,GGCAGAGCCUGACCACUUUTT against LOC100137047-PLA2G4B,inactive: -0.022
4,GCCUCAUAAUGAACGAAGATT against HEPHL1,inactive: 0.0681
5,ACGCAUGUGUGAUCACAAATT against PSMB10,inactive: 0.00939
6,GGUAUUUAUUGGACCCAGATT against KLF2,inactive: 0.359
7,GCUUACGGCUUAGACAAAATT against HSPA8,inactive: 0.462
8,AGCUGGUGUUGAUGCCCAATT against SCARB1,inactive: 0.0715
9,ACAUGAUCUAUGACUCGUATT against FAM57A,inactive: 0.0434
10,GCAUCUACCUCCUACGAGATT against ZSWIM2,inactive: -0.199
11,CUCUGACAGUCUCAUCUUUTT against SPNS1,inactive: -0.0598
12,GACCAAUGCUGCUGACAAATT against UNQ9391,inactive: -0.312
13,CCGCAGUGGAAAUACCAUATT against ANGEL1,inactive: -0.332
14,GGCAAAGUCUACAAGGUAATT against MYO3B,inactive: 0.51
15,GCCUAUUGAUUUCGAGGAATT against CNTN5,inactive: -0.236
16,CUCUCGUAGUGGAACUAAUTT against DGKE,inactive: -0.0589
17,GAUAUUCACCAGAACAUGATT against AP1G1,inactive: 0.0802
18,GAGAGUAAGCAGAAUGAAATT against GJB6,inactive: 0.0376
19,CAAGGACUCCCUUUACGGUTT against QPCTL,inactive: -0.422
20,ACAUCAACAUCUUCGCAAUTT against CYP4F8,inactive: 0.756
21,GCUACAUCUGGGUAGGAAATT against SCIN,inactive: 0.509
22,GAGUGGUUCUUGAUGCUCATT against MAPK8IP2,inactive: 0.284

# Quoted at random: seven entries already listed.
row,Sequence,median seed-adjusted z-score
15,GCCUAUUGAUUUCGAGGAATT against CNTN5,inactive: -0.236
4,GCCUCAUAAUGAACGAAGATT against HEPHL1,inactive: 0.0681
16,CUCUCGUAGUGGAACUAAUTT against DGKE,inactive: -0.0589
14,GGCAAAGUCUACAAGGUAATT against MYO3B,inactive: 0.51
13,CCGCAGUGGAAAUACCAUATT against ANGEL1,inactive: -0.332
12,GACCAAUGCUGCUGACAAATT against UNQ9391,inactive: -0.312
9,ACAUGAUCUAUGACUCGUATT against FAM57A,inactive: 0.0434

# (next part)

row,Sequence,median seed-adjusted z-score
1,AUCUUCAAUUUUUACCCAATT against DPYSL4,inactive: 0.71
2,GGACCUUGUUAACAGUGGATT against APOBEC1,inactive: -0.323
3,CCAACAUUCAAGUAACGCATT against SLTM,inactive: 0.547
4,UGACCGACCUCAUCCGUAATT against PLA2G6,inactive: -0.123
5,GAGCAGAUGUAUGAACAUUTT against SP140,inactive: 0.186
6,CGGCAACUUCAAUAACAGUTT against LPHN1,active: -1.03
7,GAUGAACCCUGGAACUUCATT against ZNF354B,inactive: 0.393
8,UCAUCUACAGGGAGACUUATT against SOAT2,inactive: 0.612
9,GCUCGUUACUAGCAUCGUATT against NEO1,inactive: 0.16
10,AGCUCAACCAUAACGUGAATT against DIRAS2,active: -1.25
11,CUAUCCACCUUCCUACAAATT against CNR2,inactive: 0.33
12,AAUACCACAUGGAAAUGAATT against OSBPL10,inactive: 0.247
13,GGUUUGAGCUGGAUCCAGATT against SLC5A6,inactive: 0.994
14,UGGUCAACUAGAAUACAUATT against RGPD5,inactive: -0.0931
15,GGACACCACAGUACCUAAATT against IL22RA1,active: -1.14
16,CAUCUGUACUCAGAUAUUATT against NPFFR2,inactive: 0.0554
17,GAUGAGGUCUUGUCCGAAATT against HECW1,inactive: -0.878
18,GGGCGAAGGUUUUCGGUAUTT against ABCA3,inactive: -0.363
19,GGAGGACUCCAGAAGAUGATT against ATF3,inactive: -0.000485
20,CCCUACAAUUCACUCCUGATT against TUBG2,inactive: 0
21,CAACCUUAUUAUCAUUGAATT against SF3B3,active: -2.53
22,GCGAUCAUUUUGUUAGAAATT against ZNF521,inactive: -0.331

row,Sequence,median seed-adjusted z-score
1,CCCUCUAAGACCAAACUUATT against STAR,inactive: 0.478
2,GCUACGACCUGAAACUCUATT against GNAZ,inactive: -0.604
3,GCACAUCAAGUUCUAUACATT against SLCO2A1,inactive: -0.0778
4,GGAGAUAAAUACUAUGGAUTT against ZNF605,inactive: -0.596
5,CGAGCAAUCAAGCAGAUCATT against EIF4A3,inactive: 0.126
6,GCAGAUCCAGGAAAACGGATT against TRIM67,inactive: -0.431
7,GGUUCUGAAAUGUUCGUCATT against ZDHHC22,inactive: 0.00446
8,CUGCAUUUCUUGAGCAUAATT against CDC45L,inactive: -0.599
9,ACAUGACGAGGGUCUAUUATT against RAB38,inactive: -0.165
10,CGUUCGGGCUCAUCUUUUATT against PSEN2,inactive: -0.147
11,GGGAUCAACUUAGAAGAGATT against POU6F1,inactive: 0.978
12,GGCAGACACUGAGAACUUATT against GRPEL1,inactive: 0
13,CUCAUACAGUCUCAACAGATT against GTF2A2,inactive: 0.0457
14,GGAAAAUCACAUUACUACATT against CTBP2,inactive: -0.241
15,CUGCAUCACUCUCACUUUATT against CH25H,inactive: -0.264
16,GUCGUGAUGUGAGUAGGUATT against TAF15,inactive: 0.357
17,CUCUUUGACCGGUUGCUCATT against EGLN2,inactive: -0.349
18,GUAUCAACGGGACAGAUGATT against HOMER1,inactive: 0
19,GCUCAGAUCGAGGAAUGCATT against TCEA2,inactive: 0.552
20,GCAGAAAGGUGUAACAUAATT against DDI2,active: 1.27
21,CUCUGGAGCUCGACAAAAATT against DHRS7C,inactive: -0.398
22,AUCCAUUGGUUGUCCAUCATT against TM9SF1,inactive: 0.14

row,Sequence,median seed-adjusted z-score
1,GGGCUGUACUGAUACUCCATT against ARSG,inactive: -0.133
2,UGGAGACGCAAGAACAAAATT against P2RY11,inactive: 0.211
3,CCAUUGCAAUCAACACCAATT against ALOX5,inactive: -0.201
4,GGCUGCAGGUCACACUUGATT against SHARPIN,inactive: -0.00778
5,AGACCACGCUCAGAGCUCATT against NXPH3,inactive: 0.056
6,CGUUCAGACCAGCUCAAAATT against WT1,inactive: 0.236
7,GCAUCUAUGUAACAAAGAUTT against DLG4,inactive: -0.498
8,CAGAUAUUAUGAAGAAUUUTT against GALNS,inactive: 0.0287
9,GAAUUAUCUCUACAGUGAATT against RPP30,inactive: -0.656
10,GGGACUUAGCAAAAAGUCATT against ZNF169,inactive: 0
11,GCUCUACGAAGAUCUGGAATT against VHL,inactive: -0.0797
12,CAGAUACUGUGAUACGGAUTT against PDK1,inactive: -0.00904
13,CACCAGCUCAAAAACGUAATT against BTK,inactive: -0.0648
14,CCACUGGAAUGGUACUUAUTT against UBR1,inactive: -0.775
15,UGAGUUGCCCUGAUUUGAATT against AIF1,inactive: -0.0293
16,GCUGGGCCGAGUACCUUAATT against PDX1,inactive: 0
17,GGAGCUUCGCCAAGACUCATT against OTP,inactive: 0.00717
18,CCUUCAAUGUGGGCUACCATT against DEGS2,inactive: -0.305
19,AGACCACCAAGGUUUCUUUTT against KCNH6,inactive: 0.424
20,CCAGCACGUUCAAACUGAUTT against SLC27A5,inactive: 0.441
21,GCAACCACCAAGAGUUUGATT against KCNS1,inactive: -0.167
22,CCAGUUUACAGUAGCUAUATT against CPNE4,inactive: -0.0933

row,Sequence,median seed-adjusted z-score
1,GCAUCACCUUCUUUCGGAUTT against UNC13A,active: -2.1
2,GGACCUAGUGUGAGCAUAATT against COL14A1,inactive: 0.19
3,GGAUGGACAUUCGCAAAGUTT against PDXK,inactive: -0.247
4,CAACCUUUCUUGUUAGUAATT against DHRS7,inactive: 0.255
5,GACUUGAUUGUAACCAAUATT against AMT,inactive: -0.506
6,GUUUUGAGGUCAACAAGAATT against ZMAT2,inactive: 0.104
7,ACACGAACCCUAUACCGCUTT against NOBOX,inactive: -0.426
8,CGUAGUAUAUUAACAAGUATT against MKKS,active: 1.03
9,AGAAAACCCUAAACCACAATT against YBX1,inactive: -0.0115
10,CCAUCUAUGAGGCGGGAAATT against MFI2,inactive: 0.365
11,AGCUGUCCGUUUGAUUUUUTT against CCR1,inactive: 0
12,GGGACUCAGAAAUCACGCATT against STK19,inactive: -0.188
13,GCAUAGGCCCAGUAACUUATT against SLC25A34,inactive: -0.256
14,CCAGGAGGAAUGGACUUUATT against ZNF778,inactive: 0.0459
15,CUACUAAUCCUGACUAUUATT against TBC1D8B,inactive: -0.985
16,GGAUUGAGGAGAAACGUAATT against RELA,inactive: -0.646
17,GGAAUAUGGGAAUACAUGUTT against ZNF529,inactive: -0.243
18,AGAAAUCUUUUAGCCUUGATT against PINX1,inactive: 0.11
19,GGACAGACCAAGAGAAUAATT against PPP1R16B,inactive: -0.892
